Laboratory results reported in paper PMC9525703.
No constants are given. Whether binding was seen depends on the method and setting. In cells and extracts the contact can be indirect. For part of these data: A result given as binding can be weak or reduced; the word gives no strength. Values belong to the substance of their own block, whether it stands above or below them.

Sequences of proteins named here, by UniProt entry; tags and fusion partners are left off. A change or cut given only in a name is not applied to a line headed by its entry.
UniProt Q9NVX7: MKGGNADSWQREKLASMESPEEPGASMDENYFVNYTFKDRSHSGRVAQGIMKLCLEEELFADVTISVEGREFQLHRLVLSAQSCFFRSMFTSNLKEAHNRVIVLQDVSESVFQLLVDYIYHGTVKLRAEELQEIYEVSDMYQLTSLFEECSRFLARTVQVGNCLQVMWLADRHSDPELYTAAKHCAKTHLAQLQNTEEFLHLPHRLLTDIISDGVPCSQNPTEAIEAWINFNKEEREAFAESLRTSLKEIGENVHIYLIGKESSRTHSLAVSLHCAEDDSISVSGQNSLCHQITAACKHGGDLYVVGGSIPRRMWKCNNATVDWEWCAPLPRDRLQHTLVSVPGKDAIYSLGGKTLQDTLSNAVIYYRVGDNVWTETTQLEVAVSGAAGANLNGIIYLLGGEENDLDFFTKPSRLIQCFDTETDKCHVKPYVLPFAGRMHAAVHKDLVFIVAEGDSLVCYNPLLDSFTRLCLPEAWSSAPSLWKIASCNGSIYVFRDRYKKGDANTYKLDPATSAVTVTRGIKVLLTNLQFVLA
UniProt Q9UKL0: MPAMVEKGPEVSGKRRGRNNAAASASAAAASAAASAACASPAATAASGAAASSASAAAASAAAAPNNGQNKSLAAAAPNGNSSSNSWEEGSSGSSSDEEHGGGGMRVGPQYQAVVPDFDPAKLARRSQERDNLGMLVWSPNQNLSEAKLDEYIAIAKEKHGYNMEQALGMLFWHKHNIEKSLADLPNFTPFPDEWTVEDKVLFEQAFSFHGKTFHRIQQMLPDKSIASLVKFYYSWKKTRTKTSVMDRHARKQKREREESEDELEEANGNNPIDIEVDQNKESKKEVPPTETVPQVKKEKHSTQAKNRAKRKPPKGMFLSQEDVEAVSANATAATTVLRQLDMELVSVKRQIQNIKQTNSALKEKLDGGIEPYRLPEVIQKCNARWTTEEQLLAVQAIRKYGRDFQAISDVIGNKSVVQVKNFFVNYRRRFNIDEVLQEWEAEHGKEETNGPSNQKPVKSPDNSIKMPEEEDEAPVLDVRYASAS

How the values were obtained:
[1] = molecular target: Flag-KBTBD4^P311PP, pCW57.1 construct in D283Med (human) (UniProt Q9NVX7); assay: co-IP; D283Med, Flag-KBTBD4 variants induced with 1 ug/mL doxycycline for 40 h, cells treated with 0.1 uM MLN4924; ANTI-FLAG M2 Affinity Gel 3 h at 4 C; endogenous CoREST and LSD1 by immunoblot
[2] = molecular target: Flag-KBTBD4^R313PRR, pCW57.1 construct in D283Med (human) (UniProt Q9NVX7); assay: as above
[3] = molecular target: Flag-KBTBD4^WT, pCW57.1 construct in D283Med (human) (UniProt Q9NVX7); assay: as above
[4] = molecular target: Flag-KBTBD4^P311PP, pCW57.1 construct in D283Med (human) (UniProt Q9NVX7); assay: co-IP; D283Med, Flag-KBTBD4 variants induced with 1 ug/mL doxycycline for 40 h, cells NOT treated with MLN4924; ANTI-FLAG M2 Affinity Gel 3 h at 4 C; endogenous CoREST and LSD1 by immunoblot
[5] = molecular target: Flag-KBTBD4^R313PRR, pCW57.1 construct in D283Med (human) (UniProt Q9NVX7); assay: as above
[6] = molecular target: Flag-KBTBD4^R313PRR, pcDNA3.1(+) construct (human) (UniProt Q9NVX7); assay: co-IP; HEK293T co-transfected with HA-CoREST and Flag-KBTBD4 variants; anti-FLAG resin, immunoblot; 0.1 uM MLN4924 for 4-5 h (interaction increased by MLN4924); lysis buffer 50 mM Tris pH 7.5, 150 mM NaCl, 0.1% NP-40
[7] = molecular target: Flag-KBTBD4^P311PP, pcDNA3.1(+) construct (human) (UniProt Q9NVX7); assay: as above
[8] = molecular target: Flag-KBTBD4^R312RG (human) (UniProt Q9NVX7); assay: as above
[9] = molecular target: Flag-KBTBD4^P311PP, MIGR1 construct in DAOY (human) (UniProt Q9NVX7); assay: co-IP; DAOY cell lines stably expressing KBTBD4 variants; endogenous CoREST; which partner was precipitated is not told in the text shown

binding [1]: binds | binding [2]: binds | binding [3]: no binding
Substance: CoREST, endogenous in D283Med (from UniProt Q9UKL0 1-485)
binding [4]: no binding (only cells not treated with MLN4924) | binding [5]: no binding (only cells not treated with MLN4924)

binding [6]: binds | binding [7]: binds | binding [8]: binds
Substance: HA-tagged CoREST (CoREST1; pCMV5 HA RCOR1) (from UniProt Q9UKL0 1-485)

binding [9]: binds
Substance: CoREST, endogenous in DAOY (from UniProt Q9UKL0 1-485)
